According to paper doi:10.1101/2025.04.23.650334:
For at least one entry, the source does not settle the construct or the ends of the probe.

By UniProt entry, the sequences of proteins in these tests, tags left out. Where a name states a change or a piece, a line headed by the entry shows the natural chain unless it says otherwise.
UniProt A8B672: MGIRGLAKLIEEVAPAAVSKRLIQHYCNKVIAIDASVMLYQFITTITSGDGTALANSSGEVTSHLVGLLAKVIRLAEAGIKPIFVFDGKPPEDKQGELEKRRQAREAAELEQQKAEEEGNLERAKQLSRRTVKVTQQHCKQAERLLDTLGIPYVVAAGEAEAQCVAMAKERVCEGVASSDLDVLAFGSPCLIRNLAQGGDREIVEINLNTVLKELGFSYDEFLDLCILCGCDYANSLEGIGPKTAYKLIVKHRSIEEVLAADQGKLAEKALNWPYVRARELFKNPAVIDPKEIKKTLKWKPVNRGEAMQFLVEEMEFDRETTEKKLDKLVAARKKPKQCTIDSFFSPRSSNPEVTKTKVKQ

How the values were obtained:
[1] = molecular target: GdFen1-HsHC (Giardia duodenalis) (UniProt A8B672); assay: EMSA; conditions: 5 mM MgCl2
[2] = molecular target: GdFen1-HsAB (Giardia duodenalis) (UniProt A8B672); assay: EMSA; conditions: 5 mM MgCl2

Q: What does the source list for “CGCGGATCCCACTACGCCGATTTTTTTTTTTTTTTTTTTTACGTATGCCACGAATTCGCG / CGCGAATTCGTGGCATACGTTTTTTTTTTTTTTTTTTTTTTCGGCGTAGTGGGATCCGCG [Bubble probe]”?
A: binding result [1]: binds; binding result [2]: binds
